Test: Octanol–water partition, shake-flask method
Type: physicochemical
Details: sum of areas in both phases / area of initial water phase; SE in parentheses
Description: The shake-flask method was done using 2 mL Eppendorf tubes and three replicates. […] After mixing, aliquots of 500 μL were transferred to new Eppendorf tubes, and 500 μL of n-octanol was added that had been saturated with water. The solvent systems were mixed in a vortex mixer for 2 h, and then both the water and the n-octanol layers as well as the initial water solution were analyzed by UPLC–DAD using the shorter phenyl column (section 2.4). The chromatograms were integrated using TargetLynx software (version 4.2), and the octanol–water partition coefficient, log P, was calculated as the log10 of the ratio of area in n-octanol phase to the area in water phase. Recovery % was calculated by summing the areas in both phases and dividing the summation with the area measured from the initial water phase.

Row | Compound | recovery (%)
1 | Oc1ccc([C@H]2Oc3c(Cc4c(O)cc(O)c5c4O[C@H](c4ccc(O)c(O)c4)[C@@H](O)C5)c(O)cc(O)c3C[C@@H]2O)cc1O [Compound 1] | 94.7 (0.6) %
2 | Oc1ccc([C@H]2Oc3c(Cc4c(O)cc(O)c5c4O[C@H](c4ccc(O)c(O)c4)[C@H](O)C5)c(O)cc(O)c3C[C@H]2O)cc1O [Compound 2, Epicatechin–methylene–epicatechin] | 95.9 (0.7) %
3 | O=C(O)C(c1c(O)cc(O)c2c1O[C@H](c1ccc(O)c(O)c1)[C@@H](O)C2)c1c(O)cc(O)c2c1O[C@H](c1ccc(O)c(O)c1)[C@@H](O)C2 [Compound 3] | 97.6 (0.2) %
4 | O=C(O)C(c1c(O)cc(O)c2c1O[C@H](c1ccc(O)c(O)c1)[C@H](O)C2)c1c(O)cc(O)c2c1O[C@H](c1ccc(O)c(O)c1)[C@H](O)C2 [Compound 4, Epicatechin–carboxymethine–epicatechin] | 97.7 (0.0) %
5 | Oc1ccc([C@H]2Oc3c(c(O)cc(O)c3C(c3ccco3)c3c(O)cc(O)c4c3O[C@H](c3ccc(O)c(O)c3)[C@@H](O)C4)C[C@@H]2O)cc1O [Compound 5, Catechin–furanmethine–catechin] | 90.9 (0.8) %
6 | Oc1ccc([C@H]2Oc3c(c(O)cc(O)c3C(c3ccco3)c3c(O)cc(O)c4c3O[C@H](c3ccc(O)c(O)c3)[C@H](O)C4)C[C@H]2O)cc1O [Compound 6, Epicatechin–furanmethine–epicatechin] | 94.6 (0.3) %
7 | Oc1ccc(C(c2c(O)cc(O)c3c2O[C@H](c2ccc(O)c(O)c2)[C@@H](O)C3)c2c(O)cc(O)c3c2O[C@H](c2ccc(O)c(O)c2)[C@@H](O)C3)cc1O [Compound 7, Catechin–catecholmethine–catechin] | 96.9 (0.4) %
8 | Oc1ccc(C(c2c(O)cc(O)c3c2O[C@H](c2ccc(O)c(O)c2)[C@H](O)C3)c2c(O)cc(O)c3c2O[C@H](c2ccc(O)c(O)c2)[C@H](O)C3)cc1O [Compound 8, Epicatechin–catecholmethine–epicatechin] | 96.4 (0.4) %
9 | Oc1cc(O)c2c(c1)O[C@H](c1ccc(O)c(O)c1)[C@@H](O)[C@@H]2c1c(O)cc(O)c2c1O[C@H](c1ccc(O)c(O)c1)[C@@H](O)C2 [Compound 11, PC B3, reference compound] | 97.4 (0.1) %
10 | Oc1cc(O)c2c(c1)O[C@H](c1ccc(O)c(O)c1)[C@H](O)[C@H]2c1c(O)cc(O)c2c1O[C@H](c1ccc(O)c(O)c1)[C@H](O)C2 [Compound 12, PC B2, reference compound] | 94.3 (0.6) %
11 | Oc1cc(O)c2c(c1)O[C@H](c1ccc(O)c(O)c1)[C@H](O)[C@H]2c1c(O)cc(O)c2c1O[C@H](c1ccc(O)c(O)c1)[C@H](O)[C@H]2c1c(O)cc(O)c2c1O[C@H](c1ccc(O)c(O)c1)[C@H](O)C2 [Compound 13, PC C1, reference compound] | 97.6 (0.0) %
12 | O=C(O[C@@H]1Cc2c(O)cc(O)cc2O[C@@H]1c1cc(O)c(O)c(O)c1)c1cc(O)c(O)c(O)c1 [Compound 14, Epigallocatechin-3-gallate, reference compound] | 94.3 (0.6) %

Same assay, conditions: tentative values, experiment shorter than two hours because the compounds degraded

Row | Compound | recovery (%)
13 | Oc1ccc([C@H]2Oc3c(c(O)cc(O)c3C(c3cc(O)c(O)c(O)c3)c3c(O)cc(O)c4c3O[C@H](c3ccc(O)c(O)c3)[C@@H](O)C4)C[C@@H]2O)cc1O [Compound 9] | 99.4 (1.2) %
14 | Oc1ccc([C@H]2Oc3c(c(O)cc(O)c3C(c3cc(O)c(O)c(O)c3)c3c(O)cc(O)c4c3O[C@H](c3ccc(O)c(O)c3)[C@H](O)C4)C[C@H]2O)cc1O [Compound 10] | 107.3 (0.7) %

Source: article PMC10722540, “Red Wine Inspired Chemistry: Hemisynthesis of Procyanidin Analogs and Determination of Their Protein Precipitation Capacity, Octanol–Water Partition, and Stability in Phosphate-Buffered Saline” (Journal of Agricultural and Food Chemistry, 2023)
